# According to the supplement of paper PMC12067093, “Discovery and optimisation of a covalent ligand for TRIM25 and its application to targeted protein ubiquitination” (Chemical Science, 2025):
# Sequences of proteins named here, by UniProt entry; tags and fusion partners are left off. A change or cut given only in a name is not applied to a line headed by its entry.
# UniProt P26368, whole entry, looked up: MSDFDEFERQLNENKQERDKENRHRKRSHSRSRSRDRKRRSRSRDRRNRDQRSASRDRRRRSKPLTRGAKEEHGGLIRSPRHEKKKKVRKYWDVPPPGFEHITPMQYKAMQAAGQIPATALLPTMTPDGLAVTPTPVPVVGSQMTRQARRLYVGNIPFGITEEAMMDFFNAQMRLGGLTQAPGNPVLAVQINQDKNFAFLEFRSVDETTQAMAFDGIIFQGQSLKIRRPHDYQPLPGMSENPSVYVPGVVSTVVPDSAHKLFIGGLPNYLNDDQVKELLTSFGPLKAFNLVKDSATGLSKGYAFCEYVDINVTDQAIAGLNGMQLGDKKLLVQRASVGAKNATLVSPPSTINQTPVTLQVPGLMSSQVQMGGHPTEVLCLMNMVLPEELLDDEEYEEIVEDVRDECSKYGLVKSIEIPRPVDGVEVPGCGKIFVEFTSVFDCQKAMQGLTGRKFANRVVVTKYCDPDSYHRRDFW
# UniProt Q9UBT2: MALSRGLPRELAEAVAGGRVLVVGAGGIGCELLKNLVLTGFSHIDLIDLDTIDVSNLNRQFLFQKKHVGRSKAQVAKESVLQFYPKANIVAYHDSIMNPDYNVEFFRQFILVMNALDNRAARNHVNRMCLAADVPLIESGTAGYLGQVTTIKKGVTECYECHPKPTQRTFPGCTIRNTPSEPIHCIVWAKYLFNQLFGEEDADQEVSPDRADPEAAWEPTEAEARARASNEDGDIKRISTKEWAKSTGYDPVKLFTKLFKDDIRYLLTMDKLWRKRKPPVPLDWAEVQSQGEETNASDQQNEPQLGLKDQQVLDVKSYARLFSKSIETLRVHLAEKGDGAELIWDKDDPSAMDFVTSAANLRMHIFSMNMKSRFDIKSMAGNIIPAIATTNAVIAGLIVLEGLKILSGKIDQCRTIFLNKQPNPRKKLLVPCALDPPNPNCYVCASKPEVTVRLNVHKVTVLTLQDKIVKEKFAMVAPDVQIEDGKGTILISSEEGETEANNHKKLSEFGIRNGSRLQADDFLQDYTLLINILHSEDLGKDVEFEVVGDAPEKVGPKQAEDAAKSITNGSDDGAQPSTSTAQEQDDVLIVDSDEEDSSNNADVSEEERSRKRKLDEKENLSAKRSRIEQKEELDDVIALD
# UniProt O15042: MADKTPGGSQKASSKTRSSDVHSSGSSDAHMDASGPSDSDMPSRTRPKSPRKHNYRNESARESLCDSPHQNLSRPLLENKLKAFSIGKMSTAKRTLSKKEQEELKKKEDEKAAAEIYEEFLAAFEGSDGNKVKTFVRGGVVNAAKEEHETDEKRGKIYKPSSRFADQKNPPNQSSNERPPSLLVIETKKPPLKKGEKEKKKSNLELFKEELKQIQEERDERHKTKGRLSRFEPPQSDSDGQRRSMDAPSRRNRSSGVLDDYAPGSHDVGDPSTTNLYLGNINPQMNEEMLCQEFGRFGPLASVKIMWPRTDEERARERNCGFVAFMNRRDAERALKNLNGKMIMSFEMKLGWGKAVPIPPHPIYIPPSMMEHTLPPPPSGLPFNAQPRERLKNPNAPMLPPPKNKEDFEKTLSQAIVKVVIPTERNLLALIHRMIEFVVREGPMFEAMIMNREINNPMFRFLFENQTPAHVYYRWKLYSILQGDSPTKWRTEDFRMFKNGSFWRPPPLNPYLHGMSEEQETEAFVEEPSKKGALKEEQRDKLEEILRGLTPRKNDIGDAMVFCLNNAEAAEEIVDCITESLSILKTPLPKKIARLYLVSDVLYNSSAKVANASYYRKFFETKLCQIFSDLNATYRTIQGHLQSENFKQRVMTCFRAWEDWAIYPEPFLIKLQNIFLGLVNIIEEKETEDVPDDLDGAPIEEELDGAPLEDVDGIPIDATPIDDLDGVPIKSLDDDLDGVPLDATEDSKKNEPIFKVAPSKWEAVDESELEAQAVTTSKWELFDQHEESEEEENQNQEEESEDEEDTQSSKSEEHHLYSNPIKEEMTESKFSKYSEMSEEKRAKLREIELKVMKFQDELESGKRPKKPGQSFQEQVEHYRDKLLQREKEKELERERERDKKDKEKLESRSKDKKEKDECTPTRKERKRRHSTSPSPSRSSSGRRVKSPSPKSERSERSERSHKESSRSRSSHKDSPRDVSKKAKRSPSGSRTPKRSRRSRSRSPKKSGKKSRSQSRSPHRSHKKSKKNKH
# UniProt Q9BZF9: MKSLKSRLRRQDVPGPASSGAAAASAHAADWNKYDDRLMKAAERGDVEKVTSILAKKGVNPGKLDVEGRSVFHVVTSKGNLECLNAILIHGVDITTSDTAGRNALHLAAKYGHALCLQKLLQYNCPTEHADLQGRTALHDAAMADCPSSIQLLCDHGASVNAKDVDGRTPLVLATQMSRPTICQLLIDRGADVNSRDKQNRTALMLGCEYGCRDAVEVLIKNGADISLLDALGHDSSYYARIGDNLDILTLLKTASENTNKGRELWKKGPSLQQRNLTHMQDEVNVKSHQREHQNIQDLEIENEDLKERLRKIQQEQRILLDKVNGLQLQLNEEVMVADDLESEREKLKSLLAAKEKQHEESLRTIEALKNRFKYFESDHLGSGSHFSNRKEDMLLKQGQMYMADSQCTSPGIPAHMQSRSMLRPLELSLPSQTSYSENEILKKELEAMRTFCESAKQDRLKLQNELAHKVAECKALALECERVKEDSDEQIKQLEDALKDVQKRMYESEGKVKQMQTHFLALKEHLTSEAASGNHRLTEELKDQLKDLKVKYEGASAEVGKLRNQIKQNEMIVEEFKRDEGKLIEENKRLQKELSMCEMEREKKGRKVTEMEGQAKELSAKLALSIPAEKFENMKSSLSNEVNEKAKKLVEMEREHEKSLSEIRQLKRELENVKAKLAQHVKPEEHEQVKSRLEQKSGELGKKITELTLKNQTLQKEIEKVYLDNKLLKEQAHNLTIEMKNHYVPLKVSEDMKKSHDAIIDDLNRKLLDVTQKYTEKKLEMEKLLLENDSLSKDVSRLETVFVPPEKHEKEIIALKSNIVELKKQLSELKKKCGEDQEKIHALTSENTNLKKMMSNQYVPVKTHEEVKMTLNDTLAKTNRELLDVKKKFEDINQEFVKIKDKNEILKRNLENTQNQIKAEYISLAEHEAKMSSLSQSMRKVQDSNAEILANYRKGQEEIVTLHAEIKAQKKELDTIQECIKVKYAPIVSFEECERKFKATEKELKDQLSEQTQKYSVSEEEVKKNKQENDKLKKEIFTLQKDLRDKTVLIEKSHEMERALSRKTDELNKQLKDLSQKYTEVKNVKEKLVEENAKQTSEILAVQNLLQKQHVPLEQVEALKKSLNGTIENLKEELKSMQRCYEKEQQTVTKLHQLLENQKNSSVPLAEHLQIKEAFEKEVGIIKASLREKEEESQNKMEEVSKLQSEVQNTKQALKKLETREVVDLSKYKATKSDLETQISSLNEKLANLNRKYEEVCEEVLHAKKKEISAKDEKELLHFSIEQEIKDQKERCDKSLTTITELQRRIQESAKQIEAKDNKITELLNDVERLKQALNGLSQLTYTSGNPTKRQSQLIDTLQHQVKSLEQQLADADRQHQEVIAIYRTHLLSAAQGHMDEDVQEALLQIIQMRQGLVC
# UniProt Q14139: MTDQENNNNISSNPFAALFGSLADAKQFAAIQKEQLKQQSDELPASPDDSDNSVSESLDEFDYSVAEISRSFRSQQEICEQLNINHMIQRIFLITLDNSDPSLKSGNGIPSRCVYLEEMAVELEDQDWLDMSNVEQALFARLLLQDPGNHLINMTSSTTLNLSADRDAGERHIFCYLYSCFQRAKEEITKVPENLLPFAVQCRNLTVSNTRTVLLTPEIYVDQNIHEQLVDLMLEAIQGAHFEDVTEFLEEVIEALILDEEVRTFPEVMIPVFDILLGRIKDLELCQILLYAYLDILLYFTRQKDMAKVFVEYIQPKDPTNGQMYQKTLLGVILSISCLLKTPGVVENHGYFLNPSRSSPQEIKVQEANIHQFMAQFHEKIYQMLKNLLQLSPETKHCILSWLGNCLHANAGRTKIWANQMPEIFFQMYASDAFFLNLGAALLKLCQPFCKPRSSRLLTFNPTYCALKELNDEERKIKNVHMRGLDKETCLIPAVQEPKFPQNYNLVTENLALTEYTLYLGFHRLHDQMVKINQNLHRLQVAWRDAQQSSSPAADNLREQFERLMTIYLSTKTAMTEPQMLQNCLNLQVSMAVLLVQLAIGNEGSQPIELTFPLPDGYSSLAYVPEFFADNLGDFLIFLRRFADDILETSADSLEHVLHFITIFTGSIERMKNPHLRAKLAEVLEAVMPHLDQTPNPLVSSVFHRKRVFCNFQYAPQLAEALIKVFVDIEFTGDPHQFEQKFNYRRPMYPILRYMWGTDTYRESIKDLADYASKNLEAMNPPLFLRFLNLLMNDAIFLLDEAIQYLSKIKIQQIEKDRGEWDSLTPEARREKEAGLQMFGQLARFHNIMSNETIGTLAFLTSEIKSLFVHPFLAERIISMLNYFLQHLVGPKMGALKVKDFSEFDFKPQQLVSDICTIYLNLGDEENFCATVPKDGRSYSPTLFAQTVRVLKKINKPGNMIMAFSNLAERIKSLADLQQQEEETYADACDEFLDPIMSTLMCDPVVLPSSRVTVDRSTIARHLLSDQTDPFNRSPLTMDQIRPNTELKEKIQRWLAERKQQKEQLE
# UniProt Q9C0C9: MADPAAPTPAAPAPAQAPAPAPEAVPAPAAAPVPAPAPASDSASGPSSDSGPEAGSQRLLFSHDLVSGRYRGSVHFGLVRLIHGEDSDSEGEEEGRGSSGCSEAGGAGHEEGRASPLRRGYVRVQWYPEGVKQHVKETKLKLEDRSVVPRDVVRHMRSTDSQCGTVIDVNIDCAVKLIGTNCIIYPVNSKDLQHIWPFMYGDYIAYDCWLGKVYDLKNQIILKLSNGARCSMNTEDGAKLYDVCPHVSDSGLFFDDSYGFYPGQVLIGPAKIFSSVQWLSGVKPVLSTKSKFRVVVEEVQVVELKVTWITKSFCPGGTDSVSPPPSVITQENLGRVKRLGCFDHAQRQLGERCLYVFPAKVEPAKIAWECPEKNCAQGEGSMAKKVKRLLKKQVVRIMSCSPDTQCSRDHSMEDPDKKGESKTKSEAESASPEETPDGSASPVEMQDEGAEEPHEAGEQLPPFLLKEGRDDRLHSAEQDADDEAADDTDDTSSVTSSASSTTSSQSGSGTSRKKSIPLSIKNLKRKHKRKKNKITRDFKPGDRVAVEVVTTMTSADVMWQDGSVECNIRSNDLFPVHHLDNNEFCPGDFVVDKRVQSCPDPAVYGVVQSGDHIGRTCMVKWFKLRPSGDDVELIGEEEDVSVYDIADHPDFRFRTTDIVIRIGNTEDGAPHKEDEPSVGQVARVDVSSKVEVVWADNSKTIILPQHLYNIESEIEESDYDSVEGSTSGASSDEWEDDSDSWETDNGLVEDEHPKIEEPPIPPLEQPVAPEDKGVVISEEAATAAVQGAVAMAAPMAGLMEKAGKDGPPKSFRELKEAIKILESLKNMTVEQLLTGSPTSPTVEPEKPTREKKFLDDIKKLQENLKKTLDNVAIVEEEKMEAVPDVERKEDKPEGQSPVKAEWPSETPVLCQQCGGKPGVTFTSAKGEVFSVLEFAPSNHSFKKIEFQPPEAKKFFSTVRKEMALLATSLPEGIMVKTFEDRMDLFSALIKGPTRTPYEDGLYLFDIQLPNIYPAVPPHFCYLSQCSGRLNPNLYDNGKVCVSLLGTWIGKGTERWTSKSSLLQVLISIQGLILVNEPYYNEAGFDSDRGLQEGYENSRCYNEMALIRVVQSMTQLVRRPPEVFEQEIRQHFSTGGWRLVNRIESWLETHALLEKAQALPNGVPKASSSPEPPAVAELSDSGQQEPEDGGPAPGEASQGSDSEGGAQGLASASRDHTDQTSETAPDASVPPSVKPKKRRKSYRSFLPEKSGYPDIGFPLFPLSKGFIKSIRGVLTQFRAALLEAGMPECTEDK
# The list shows a part of the results.
# Compound: Cc1cc(ccc1-c1ccccc1)C(=O)N1CCCN(CC1)C(=O)CCl [compound 10]
# Assay: probe-labelled cysteine peptide fold change vs DMSO (competition) (log2 fold change); higher = less target engagement (more negative = stronger competition)
# Conditions: THP-1, incubation time: 4 h
# 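Also: competitive profiling in live THP-1 cells: cysteine peptides tagged with an iodoacetamide desthiobiotin (IA-DTB) probe, intensity after compound treatment relative to DMSO-treated cells.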
Target,probe-labelled cysteine peptide fold change (10 µM),probe-labelled cysteine peptide fold change (50 µM)
UBA6_A0AVT1_17_MEGSEPVAAHQGEEASCSSWGTGSTNK,-0.503,-0.362
U2AF2_P26368_464_YCDPDSYHRR (UniProt P26368),0.162,-0.258
UBR4_Q5T4S7_1662_LCTFTITQK (UniProt Q5T4S7),-0.111,-0.214
UBR5_O95071_769_YCIFDLATGK (UniProt O95071),0.227,0.176
UBR1_Q8IWV7_99_HSGAFQLCGR (UniProt Q8IWV7),-0.0461,0.0566
UBA6_A0AVT1_156_YQCVVLTEMK,0.126,0.104
UBN1_Q9NPG3_837_ASPTQCHR (UniProt Q9NPG3),-0.0699,-1.04
UBA2_Q9UBT2_161_KGVTECYECHPKPTQR (UniProt Q9UBT2),-0.0118,-0.377
UBR2_Q8IWV8_112_VGEPTYSCR (UniProt Q8IWV8),-0.121,-0.18
TYK2_P29597_291_LLAQAEGEPCYIR (UniProt P29597),-0.119,-0.312
TXNL1_O43396_135+137_AGCECLNESDEHGFDNCLRK (UniProt O43396),-0.534,-0.915
UBR4_Q5T4S7_4146_QAACTIVEALATIPSR (UniProt Q5T4S7),-0.0407,0.0036
U2SURP_O15042_65_ESLCDSPHQNLSRPLLENK (UniProt O15042),0.167,-0.428
UBE2V1_Q13404_144_LPQPPEGQCYSN (UniProt Q13404),-0.4,-0.214
UBE3A_Q05086_108_GAPNNSCSEIK (UniProt Q05086),-0.138,-0.789
UBA1_P22314_632_SIPICTLK (UniProt P22314),-0.0921,-0.282
UBE2K_P61086_92_IWHPNISSVTGAICLDILK (UniProt P61086),-0.124,0.58
UBR4_Q5T4S7_1900_RVAMCVLSSPHGR (UniProt Q5T4S7),-0.0283,0.186
TXNRD1_Q16881_339_EYCISSDDLFSLPYCPGK (UniProt Q16881),0.697,0.594
UAP1_Q16222_251_GIWSIHVYCVDNILVK (UniProt Q16222),-0.524,-0.0431
UBR3_Q6ZT12_288_DLTSGLGENACVK (UniProt Q6ZT12),-0.298,-0.751
UACA_Q9BZF9_1258_KYEEVCEEVLHAK (UniProt Q9BZF9),0.18,0.267

Target,probe-labelled cysteine peptide fold change (10 µM),probe-labelled cysteine peptide fold change (50 µM)
UBA6_A0AVT1_682_IQSGHSLEGCFQVIK,0.141,0.172
UBR4_Q5T4S7_4838+4841_QMEELIEEPGLTCCICR (UniProt Q5T4S7),0.351,-0.00299
UBR4_Q5T4S7_4642_FKPYCNFDK (UniProt Q5T4S7),-0.0874,0.238
TYK2_P29597_736_NLVHGNVCGR (UniProt P29597),-0.00731,-0.24
UBE4A_Q14139_465_LLTFNPTYCALK (UniProt Q14139),-0.0648,0.0328
TXNL4A_P83876_38_FGHDWDPTCMK (UniProt P83876),0.0678,0.182
UBR7_Q8N806_155+158_RPYPDPEDEIPDEMIQCVVCEDWFHGR (UniProt Q8N806),-0.195,-1.14
UBE4A_Q14139_490_ETCLIPAVQEPK (UniProt Q14139),-0.186,-0.0363
UAP1L1_Q3KQV9_271_LADPVFIGFCVLQGADCGAK (UniProt Q3KQV9),-0.0691,-0.00351
UBA6_A0AVT1_174_KINDFCR,0.103,0.0143
UBA1_P22314_711_SLVLQRPQTWADCVTWACHHWHTQYSNNIR (UniProt P22314),-0.12,0.238
UBE2O_Q9C0C9_353_CLYVFPAK (UniProt Q9C0C9),-0.197,-0.291
UAP1L1_Q3KQV9_50_AALLAELALLEPEALREHCR (UniProt Q3KQV9),-0.0419,-0.0103
UBR1_Q8IWV7_1197+1200_IHVDLFDLESGEYLCPLCK (UniProt Q8IWV7),-0.221,-0.351
UBASH3B_Q8TF42_70_SVQAACDWLFSHVGDPFLDDPLPR (UniProt Q8TF42),0.0638,-0.117
UBA1_P22314_234_DNPGVVTCLDEAR (UniProt P22314),-0.225,0.0936
UBE2J2_Q8N2K1_157_VFCELFPEVVEEIK (UniProt Q8N2K1),0.0262,-0.0163
UBE2D3_P61077_111_VLLSICSLLCDPNPDDPLVPEIAR (UniProt P61077),-0.661,0.456
UBE2Z_Q9H832_154_CPPDYPIHPPR (UniProt Q9H832),-0.123,-0.0363
UBR5_O95071_572_VGVLMESVWNMNDSCR (UniProt O95071),-0.0405,0.0537
UAP1_Q16222_293_TNPTEPVGVVCR (UniProt Q16222),0.0439,-0.0283
UBR2_Q8IWV8_127_DCAVDPTCVLCMECFLGSIHR (UniProt Q8IWV8),-0.0675,-0.0727

Target,probe-labelled cysteine peptide fold change (10 µM),probe-labelled cysteine peptide fold change (50 µM)
UBASH3B_Q8TF42_474_CVQTAHNILK (UniProt Q8TF42),-0.16,-0.0515
UBA2_Q9UBT2_158+161_GVTECYECHPKPTQR (UniProt Q9UBT2),0.136,-0.329
U2SURP_O15042_918_EKDECTPTRK (UniProt O15042),-0.0489,0.231
UBR5_O95071_2084_CLMEVTVDR (UniProt O95071),-0.0883,-0.683
UBA1_P22314_179_VGEFCHNR (UniProt P22314),0.0693,0.0567
UBL7_Q96S82_66_LQESVPDPELIDLIYCGR (UniProt Q96S82),-0.109,-0.328
UBA2_Q9UBT2_129_MCLAADVPLIESGTAGYLGQVTTIK (UniProt Q9UBT2),-0.0118,0.124
UBR4_Q5T4S7_4839+4841_QMEELIEEPGLTCCICR (UniProt Q5T4S7),0.22,0.247
UAP1L1_Q3KQV9_57_AAEACAR (UniProt Q3KQV9),0.00283,0.0362
TYW3_Q6IPR3_109_FEPFVLHVQCR (UniProt Q6IPR3),0.105,0.148
UBE4A_Q14139_710_VFCNFQYAPQLAEALIK (UniProt Q14139),-0.122,0.137
UBR3_Q6ZT12_1858_GKPLYICK (UniProt Q6ZT12),-0.135,-0.393
UAP1L1_Q3KQV9_271+278_LADPVFIGFCVLQGADCGAK (UniProt Q3KQV9),0.157,-0.0665
UBA2_Q9UBT2_129_MCLAADVPLIESGTAGYLGQVTTIKK (UniProt Q9UBT2),-0.0261,-0.243
UBR4_Q5T4S7_3864_ALSVLGCGHTSSTK (UniProt Q5T4S7),0.108,-0.246
UBE3D_Q7Z6J8_52_TPEGCTEIQLPAEVR (UniProt Q7Z6J8),0.0793,0.147
U2AF2_P26368_464_YCDPDSYHR (UniProt P26368),0.298,0.1
TXNRD1_Q16881_577_IICNTK (UniProt Q16881),0.836,0.459
UBASH3B_Q8TF42_135_AHNIFPHITLCQFFMCEDSK (UniProt Q8TF42),-0.172,0.153
UBE3A_Q05086_843_LPTSHTCFNVLLLPEYSSK (UniProt Q05086),-0.126,-0.299
UBAP1_Q9NZ09_434_KGENIEQILDYLFAHGQLCEK (UniProt Q9NZ09),0.108,0.123
TXN_P10599_73_CMPTFQFFK (UniProt P10599),-0.261,-0.457

Target,probe-labelled cysteine peptide fold change (10 µM),probe-labelled cysteine peptide fold change (50 µM)
UBR1_Q8IWV7_1200_IHVDLFDLESGEYLCPLCK (UniProt Q8IWV7),0.111,0.167
UBE2Z_Q9H832_243_NYNECIR (UniProt Q9H832),-0.229,-0.257
UBR2_Q8IWV8_1332_VHPNEEDPRVPIMCWGSCAYTIQSIER (UniProt Q8IWV8),-0.118,-0.386
U2AF2_P26368_429_SIEIPRPVDGVEVPGCGK (UniProt P26368),0.305,0.127
UBR5_O95071_2546_ILGLCLLQNELCPITLNR (UniProt O95071),-0.0401,0.271
UBR2_Q8IWV8_115_DCAVDPTCVLCMECFLGSIHR (UniProt Q8IWV8),0.0608,0.0281
U2SURP_O15042_320_NCGFVAFMNR (UniProt O15042),-0.0802,-0.268
UBR4_Q5T4S7_1900_VAMCVLSSPHGR (UniProt Q5T4S7),-0.0521,-0.0658
UBE2S_Q16763_95_IFHPNVGANGEICVNVLK (UniProt Q16763),-0.0588,0.0218
UBA6_A0AVT1_468+473_LQNLNIFLVGCGAIGCEMLK,-0.0565,0.00786
UBA6_A0AVT1_473_LQNLNIFLVGCGAIGCEMLK,-0.2,0.0449
UBA6_A0AVT1_231_EIFISNITQANPGIVTCLENHPHK,-0.117,0.131
TXNL1_O43396_135+149_AGCECLNESDEHGFDNCLR (UniProt O43396),-0.443,-0.546
UBE2M_P61081_95+111_CETMVYHPNIDLEGNVCLNILR (UniProt P61081),0.264,0.228
UBE2I_P63279_43_NPDGTMNLMNWECAIPGKK (UniProt P63279),0.0841,-0.18
UBR4_Q5T4S7_2554_AVQCLNTSSK (UniProt Q5T4S7),-0.27,-0.543
UACA_Q9BZF9_481_ALALECER (UniProt Q9BZF9),0.0247,0.164
UBR1_Q8IWV7_1101_EVLTCILCQEEQEVK (UniProt Q8IWV7),-0.162,0.733
UBE2O_Q9C0C9_230_CSMNTEDGAK (UniProt Q9C0C9),0.04,0.0673
UBA1_P22314_494_NFAMIGLGCGEGGEIIVTDMDTIEK (UniProt P22314),0.0314,-0.0685

# 26 entries from above, bar-delimited.
Target | probe-labelled cysteine peptide fold change (10 µM) | probe-labelled cysteine peptide fold change (50 µM)
UBA2_Q9UBT2_129_MCLAADVPLIESGTAGYLGQVTTIKK (UniProt Q9UBT2) | -0.0261 | -0.243
UBR4_Q5T4S7_3864_ALSVLGCGHTSSTK (UniProt Q5T4S7) | 0.108 | -0.246
UBE3D_Q7Z6J8_52_TPEGCTEIQLPAEVR (UniProt Q7Z6J8) | 0.0793 | 0.147
U2AF2_P26368_464_YCDPDSYHR (UniProt P26368) | 0.298 | 0.1
TXNRD1_Q16881_577_IICNTK (UniProt Q16881) | 0.836 | 0.459
UBASH3B_Q8TF42_135_AHNIFPHITLCQFFMCEDSK (UniProt Q8TF42) | -0.172 | 0.153
UBE3A_Q05086_843_LPTSHTCFNVLLLPEYSSK (UniProt Q05086) | -0.126 | -0.299
UBAP1_Q9NZ09_434_KGENIEQILDYLFAHGQLCEK (UniProt Q9NZ09) | 0.108 | 0.123
UBR1_Q8IWV7_1200_IHVDLFDLESGEYLCPLCK (UniProt Q8IWV7) | 0.111 | 0.167
UBE2Z_Q9H832_243_NYNECIR (UniProt Q9H832) | -0.229 | -0.257
UBR2_Q8IWV8_1332_VHPNEEDPRVPIMCWGSCAYTIQSIER (UniProt Q8IWV8) | -0.118 | -0.386
U2AF2_P26368_429_SIEIPRPVDGVEVPGCGK (UniProt P26368) | 0.305 | 0.127
UBR5_O95071_2546_ILGLCLLQNELCPITLNR (UniProt O95071) | -0.0401 | 0.271
UBR2_Q8IWV8_115_DCAVDPTCVLCMECFLGSIHR (UniProt Q8IWV8) | 0.0608 | 0.0281
U2SURP_O15042_320_NCGFVAFMNR (UniProt O15042) | -0.0802 | -0.268
UBR4_Q5T4S7_1900_VAMCVLSSPHGR (UniProt Q5T4S7) | -0.0521 | -0.0658
UBE2S_Q16763_95_IFHPNVGANGEICVNVLK (UniProt Q16763) | -0.0588 | 0.0218
UBA6_A0AVT1_468+473_LQNLNIFLVGCGAIGCEMLK | -0.0565 | 0.00786
UBA6_A0AVT1_473_LQNLNIFLVGCGAIGCEMLK | -0.2 | 0.0449
UBA6_A0AVT1_231_EIFISNITQANPGIVTCLENHPHK | -0.117 | 0.131
TXNL1_O43396_135+149_AGCECLNESDEHGFDNCLR (UniProt O43396) | -0.443 | -0.546
UBE2I_P63279_43_NPDGTMNLMNWECAIPGKK (UniProt P63279) | 0.0841 | -0.18
UBR4_Q5T4S7_2554_AVQCLNTSSK (UniProt Q5T4S7) | -0.27 | -0.543
UACA_Q9BZF9_481_ALALECER (UniProt Q9BZF9) | 0.0247 | 0.164
UBR1_Q8IWV7_1101_EVLTCILCQEEQEVK (UniProt Q8IWV7) | -0.162 | 0.733
UBE2O_Q9C0C9_230_CSMNTEDGAK (UniProt Q9C0C9) | 0.04 | 0.0673
